Measured values taken from PubChem BioAssay AID493014 (National Center for Advancing Translational Sciences (NCATS), 2011).
This is one part of the list. The main result of the screen is listed elsewhere. These columns were measured beside it and carry no call. Compounds called inactive in the main read-out are mostly missing here. The note in brackets gives the kind of curve behind each potency; many fits are weak.

Test: qHTS Assay to Find Inhibitors of Chronic Active B-Cell Receptor Signaling
Details: ABC-DLBCL IkBa-CBG/CBR reporter, luminescence ratio (green luciferase fused to IkBa over red control in TMD8 lymphoma cells), 4 h; measured here: CBR red luminescence, cell number
Summary of the method: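 TMD8 ABC-DLBCL cells carrying doxycycline-inducible green luciferase fused to IkappaBalpha plus unfused red luciferase were exposed to compounds (up to 46 uM) for 4 hrs at 37C. Activity came from the overlap-corrected green/red luminescence ratio.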
For `COc1cccc(NC(=O)CN2C(=O)COc3ccc(S(=O)(=O)N4CCC(C)CC4)cc32)c1`, the AC50 was 25.1 µM [falling, single point].
With `Cc1ccccc1OCCNC(=O)/C=C/c1ccccc1` the AC50 was 29.1 µM [rising, single point].
For `COc1ccc(C(=O)NC(=S)Nc2ccccc2N2CCOCC2)cc1[N+](=O)[O-]`, the AC50 was 0.058 µM [rising, full curve, poor fit].
In the case of `Cc1ccc(N2CC(C(=O)NCc3ccco3)CC2=O)cc1Cl` (stereo not drawn), the AC50 is reported as 5.62 µM [falling, partial curve].
For `CCOC(=O)c1ccc(NC(=O)N2CCN(Cc3ccccc3)CC2)cc1`, the AC50 was 0.282 µM [rising, partial curve, poor fit].
For `COc1ccccc1CN(C)C(=O)C(c1ccccc1)c1ccccc1`, the AC50 was 15.8 µM [falling, single point].
For `O=C(CCl)N(c1ccccc1)C1CCS(=O)(=O)C1` (stereo not drawn), the AC50 was 29.1 µM [falling, single point].
With `COC(=O)c1sc(-c2ccc(C(C)(C)C)cc2)cc1NC(=O)c1ccccc1C(=O)O` the AC50 was 11.2 µM [rising, partial curve, poor fit].
For `CC(O)[C@H]1CNC(=S)N1CCc1cccc(F)c1` (stereo partly drawn), the AC50 was 5.01 µM [rising, single point].
With `COc1ccc2sc3ccccc3c(=O)c2c1OC` the AC50 was 0.316 µM [rising, full curve, poor fit].
With `O=[N+]([O-])c1ccc(Oc2ccc(OCc3ccccc3)cc2)nc1` the AC50 was 5.62 µM [rising, single point].
With `COc1cccc(C(=O)OCC(=O)Nc2nnc(-c3ccccc3)o2)c1` the AC50 was 16.4 µM [falling, partial curve].
For `Cc1ccc(Nc2nnc(SCC(=O)Nc3cccc(S(=O)(=O)N4CCCCC4)c3)s2)cc1`, the AC50 was 1.84 µM [falling, full curve, poor fit].
With `COc1ccc(C(=O)Nc2sc3c(c2C(=O)O)CC(C)(C)OC3)cc1` the AC50 was 23.1 µM [falling, single point].
For `COc1ccc(C(=S)N2CCCC2)cc1Br`, the AC50 was 35.5 µM [rising, single point].
With `Cc1cccc(NC(=O)c2cc3c(s2)-c2c(C)cccc2OC3)n1` the AC50 was 0.141 µM [falling, full curve, poor fit].
In the case of `CC(C(=O)Nc1ccc(Cl)cc1)N(C)Cc1cccs1` (stereo not drawn), the AC50 is reported as 2.82 µM [rising, full curve, poor fit].
With `C=CCn1c(SCC(=O)N2CCCC2)nc2c([nH]c3ccccc32)c1=O` the AC50 was 0.178 µM [falling, full curve, poor fit].
